# Most values lie at the floor of the assay. Slopes are relative: functional sequences can read slightly below zero.
# Test system: Saccharomyces cerevisiae PS128 hsf1 delta, HSF1(1-493) fusion
# Assay: growth estimate (transactivation domain function in HSF1 fusion, heat-shock survival) (a.u. (slope of normalised read count over time)); higher = stronger growth at 37°C, i.e. more transactivation activity
# Details: library: random library
row,Substance,growth estimate
1,LAAISLCTGSHGVRPESRTL,< -0.25
2,QWCCHTRRRRWGISSTASRT,< -0.25
3,SKSVRTLEPRPAFHLPSAE,< -0.25
4,KDALNVCSYSRLQILSSCYT,< -0.25
5,CGGEISCRKAASSRMILTVR,< -0.25
6,PPYR,< -0.25
7,LGIQTVETDPLGPLMWHGLQ,< -0.25
8,LPVYNMRTINGQDVWISAPY,< -0.25
9,QSVSA,< -0.25
10,TTGDGRLV,< -0.25
11,YAISHGRTSAVLPGVLIETS,< -0.25
12,GYQVSSGLGSTLARGKEESR,< -0.25
13,IPVNKNA,< -0.25
14,DCICSLSHGSVLSRIVLATF,< -0.25
15,LRTRGQPLL,< -0.25
16,LPRACARARTARASQTEGIQ,< -0.25
17,PDRYPKEWTWGPRILLGPQG,< -0.25
18,SRYGWEAWE,0.307
19,REEVRAQYLDPRNEVGR,-0.227
20,CVRS,< -0.25
21,DDEGTYCVNACKTP,< -0.253
22,LGMGSVYPSGVCV,< -0.25
23,AGENDPTAPHPRHAPW,< -0.25
24,GSGCQAPLERGDLEMGQPKP,< -0.25
25,TITINRSPTSQVRAFLR,< -0.25

row,Substance,growth estimate
1,FENTVACHPGVRRIVKTSEL,< -0.25
2,WRCYCPVCMVLCHSYFWPVT,< -0.25
3,RVKCRYSRPLAGYTGPGRIM,< -0.25
4,AFRMKIKQNFKC,< -0.25
5,LKKPPVRGA,< -0.25
6,GFLGYCYTAGVGLARFVSMQ,< -0.25
7,GETDEQSGFSVLIGGERYEQ,< -0.25
8,GELECFPPH,< -0.25
9,LSDGCTRVPFQGKRTIPMSV,< -0.25
10,RDA,< -0.25
11,IIITPKKCGRGKVLWFKDRR,< -0.25
12,RIRIFCYLSASLSINLDGKQ,< -0.25
13,VIELTHIGKLQMPGI,< -0.25
14,NGLVLGSQGSRACTRGEQAL,-0.25
15,KGTQVYRSLGGVSDGQAVAR,< -0.25
16,RWTSYSIASGGSGCTSV,< -0.25
17,PDTRLVVGIGPGIFSGAESC,< -0.25
18,LSLVCKSFSTRGI,< -0.25
19,PDTPGAPLDPW,< -0.25
20,TRWFFKRSARTLHTSPTGHG,< -0.25
21,AFELVL,< -0.25
22,KVSPTEEPVMFG,< -0.25
23,PWCT,< -0.25
24,PDLGYVVVVGMSQGVTR,< -0.25
25,GAPVLTRRLSGGTFTALR,< -0.25

# Shown with tabs: entries from further up.
row	Substance	growth estimate
1	FENTVACHPGVRRIVKTSEL	< -0.25
2	WRCYCPVCMVLCHSYFWPVT	< -0.25
3	RVKCRYSRPLAGYTGPGRIM	< -0.25
4	AFRMKIKQNFKC	< -0.25
5	LKKPPVRGA	< -0.25
6	GFLGYCYTAGVGLARFVSMQ	< -0.25
7	GETDEQSGFSVLIGGERYEQ	< -0.25
8	GELECFPPH	< -0.25
9	LSDGCTRVPFQGKRTIPMSV	< -0.25
10	RDA	< -0.25
11	IIITPKKCGRGKVLWFKDRR	< -0.25
12	RIRIFCYLSASLSINLDGKQ	< -0.25
13	VIELTHIGKLQMPGI	< -0.25
14	NGLVLGSQGSRACTRGEQAL	-0.25
15	KGTQVYRSLGGVSDGQAVAR	< -0.25
16	RWTSYSIASGGSGCTSV	< -0.25
17	PDTRLVVGIGPGIFSGAESC	< -0.25
18	LSLVCKSFSTRGI	< -0.25
19	PDTPGAPLDPW	< -0.25
20	TRWFFKRSARTLHTSPTGHG	< -0.25
21	AFELVL	< -0.25

# Further results

row,Substance,growth estimate
1,RIPPVQSIKTLAPSVSRSFD,< -0.25
2,KRVLNPTQTV,< -0.25
3,HNVLCS,< -0.25
4,DFGRKLICG,< -0.25
5,TRVVAGIYTGESGPSLLSER,< -0.25
6,TNDKWCGNCLAALS,< -0.25
7,RTNPHSASRLKSVPPGQLST,-0.246
8,REA,< -0.25
9,GRGYHTERAGLRLGSAPARW,< -0.25
10,RRVCSHHSVIDEAILRDIRG,< -0.25
11,HCSLLFYARRSPRHHPESRE,< -0.25
12,NRRVGSARWR,< -0.25
13,VVPIVRTVRMTAYAAART,< -0.25
14,SLVRRRSCGGGLAIKERFDL,-0.246
15,GSEAISKGDRNLLGVRRC,< -0.25
16,KEG,< -0.25
17,GPPNTRH,< -0.25
18,INMALAVSLPLFPFVSHRNS,< -0.25
19,IGTRWIYSNLCQGLTSLVTG,< -0.25
20,DRGPMGQIAGDLGPQMTTQP,< -0.25
21,LGVVIIPEGTRWIIRSYHPT,< -0.25
22,WNCHSGAGSRSVSHA,< -0.25
23,VLGWRTSVDRRGAGIWGLSR,< -0.25
24,SQIEMQTFDDNSNTHCPCTP,< -0.25
25,PGEENHFCLWCWPVRRELRS,< -0.25

row,Substance,growth estimate
1,IPAGRPSRVIHGAAADHGAV,< -0.25
2,LFSKS,< -0.25
3,DKDFGDDLSGGVDETCDSVA,< -0.25
4,KGIRVEESYDEQCHKRFTC,< -0.25
5,SLSTHTYIGKFQRFLSPDEP,< -0.25
6,WSEGLGSNRNSLILPTYQR,< -0.25
7,CTPAGWMCGVSST,< -0.25
8,SRRAYLLW,< -0.25
9,HATTATEQKSPVGEAMRSLC,< -0.25
10,KKCSKGRTHRLHRFHRNFLL,-0.243
11,NGLTC,-0.126
12,EGIVCT,< -0.253
13,IDLHPSTVVVRCIAARERID,< -0.25
14,ADRFQVMAIKTLCGQHASRV,< -0.25
15,LTFNFSLPRPS,< -0.25
16,VWPRFALIAGWVGQACISLV,< -0.25
17,FVLGYLRAGLPAPTSSACDA,< -0.25
18,WGTVSGVMASKARFIVHRPR,< -0.25
19,DLRLVSEEAQRQVSLSGKRS,< -0.25
20,ITALGESGLIIWLSRS,< -0.25
21,GGHTDMAPRSTWLLE,< -0.25
22,IRDDLVKFRPWIILLKSCIF,< -0.25

# — the supplement of paper PMC5949888
